Laboratory results reported in the supplement of paper PMC12823440, “Inhibitors supercharge kinase turnover through native proteolytic circuits” (Nature, 2025).
Structures can show the parent of a compound that is named as a salt. The list shows a part of the results. The calls rarely recur for the same compound in another form.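 Kinases were expressed as nanoluciferase fusions in K562 cells and luminescence was read every 4 h between 2 and 18 h as percent of control, DMSO set to 100% and a positive control to 0%. A time point counts as decreased when the signal drops significantly (2 sigma). The hit call is the authors' own, does not follow from the count of time points alone, and its rule is not shown.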

Amino acid sequences for entries named in this document (tags omitted). A change or cut given only in a name is not applied to a line headed by its entry.
UniProt P29317, whole entry: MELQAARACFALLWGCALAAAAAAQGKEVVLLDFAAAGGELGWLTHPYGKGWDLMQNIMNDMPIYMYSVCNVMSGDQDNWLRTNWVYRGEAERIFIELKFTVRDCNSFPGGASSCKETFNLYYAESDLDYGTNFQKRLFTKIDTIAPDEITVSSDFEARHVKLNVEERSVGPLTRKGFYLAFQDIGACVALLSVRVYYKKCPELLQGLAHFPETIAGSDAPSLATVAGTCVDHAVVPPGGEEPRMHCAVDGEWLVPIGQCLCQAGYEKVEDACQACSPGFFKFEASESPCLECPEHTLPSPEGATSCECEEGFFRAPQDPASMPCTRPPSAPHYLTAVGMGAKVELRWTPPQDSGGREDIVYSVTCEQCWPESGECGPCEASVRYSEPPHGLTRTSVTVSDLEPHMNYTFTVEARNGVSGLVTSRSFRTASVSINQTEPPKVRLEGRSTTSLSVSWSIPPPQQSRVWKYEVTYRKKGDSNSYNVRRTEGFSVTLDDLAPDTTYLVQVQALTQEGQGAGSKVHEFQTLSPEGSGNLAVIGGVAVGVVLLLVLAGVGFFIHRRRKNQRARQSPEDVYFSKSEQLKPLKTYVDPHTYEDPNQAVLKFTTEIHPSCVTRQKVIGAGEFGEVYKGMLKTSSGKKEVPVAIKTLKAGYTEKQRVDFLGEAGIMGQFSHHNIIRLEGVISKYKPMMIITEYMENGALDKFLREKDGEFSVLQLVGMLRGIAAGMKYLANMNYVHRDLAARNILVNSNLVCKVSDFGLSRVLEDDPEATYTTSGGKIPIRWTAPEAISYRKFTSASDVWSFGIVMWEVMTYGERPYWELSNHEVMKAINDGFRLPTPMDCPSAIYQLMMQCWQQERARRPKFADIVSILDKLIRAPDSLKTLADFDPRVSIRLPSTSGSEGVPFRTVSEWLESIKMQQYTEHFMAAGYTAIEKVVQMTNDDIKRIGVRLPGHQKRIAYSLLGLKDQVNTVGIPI
UniProt P21860, whole entry: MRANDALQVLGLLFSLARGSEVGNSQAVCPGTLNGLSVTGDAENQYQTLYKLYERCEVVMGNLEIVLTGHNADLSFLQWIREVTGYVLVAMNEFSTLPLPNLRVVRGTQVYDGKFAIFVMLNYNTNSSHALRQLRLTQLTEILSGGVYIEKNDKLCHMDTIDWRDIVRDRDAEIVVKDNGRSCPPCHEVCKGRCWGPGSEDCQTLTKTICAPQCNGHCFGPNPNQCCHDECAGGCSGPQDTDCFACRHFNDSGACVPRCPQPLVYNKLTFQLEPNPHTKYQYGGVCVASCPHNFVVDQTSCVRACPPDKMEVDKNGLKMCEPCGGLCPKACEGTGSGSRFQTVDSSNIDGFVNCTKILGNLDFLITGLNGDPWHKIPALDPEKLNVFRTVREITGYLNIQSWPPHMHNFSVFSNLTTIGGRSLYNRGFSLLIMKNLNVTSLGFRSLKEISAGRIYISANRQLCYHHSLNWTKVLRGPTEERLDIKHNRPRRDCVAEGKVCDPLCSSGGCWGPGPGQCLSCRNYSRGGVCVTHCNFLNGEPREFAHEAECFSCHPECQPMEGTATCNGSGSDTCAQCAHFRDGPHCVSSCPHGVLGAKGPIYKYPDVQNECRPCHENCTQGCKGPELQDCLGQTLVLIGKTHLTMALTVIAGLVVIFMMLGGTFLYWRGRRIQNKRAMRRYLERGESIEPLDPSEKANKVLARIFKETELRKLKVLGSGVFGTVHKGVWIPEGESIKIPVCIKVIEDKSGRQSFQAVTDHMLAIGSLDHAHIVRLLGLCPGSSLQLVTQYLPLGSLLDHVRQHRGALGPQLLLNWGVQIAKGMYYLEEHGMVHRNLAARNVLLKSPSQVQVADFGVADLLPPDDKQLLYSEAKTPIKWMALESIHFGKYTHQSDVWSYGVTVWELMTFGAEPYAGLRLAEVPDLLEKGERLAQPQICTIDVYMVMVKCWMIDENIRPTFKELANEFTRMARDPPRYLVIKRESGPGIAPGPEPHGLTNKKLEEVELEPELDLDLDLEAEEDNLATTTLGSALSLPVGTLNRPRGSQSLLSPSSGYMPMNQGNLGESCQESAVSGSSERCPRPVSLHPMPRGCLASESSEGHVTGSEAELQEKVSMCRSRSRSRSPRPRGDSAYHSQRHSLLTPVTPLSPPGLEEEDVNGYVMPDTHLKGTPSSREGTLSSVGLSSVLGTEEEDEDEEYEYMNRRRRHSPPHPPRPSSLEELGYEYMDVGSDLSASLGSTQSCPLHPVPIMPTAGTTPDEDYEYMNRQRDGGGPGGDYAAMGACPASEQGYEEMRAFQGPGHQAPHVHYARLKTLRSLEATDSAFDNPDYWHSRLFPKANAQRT
UniProt Q15303, whole entry R711C: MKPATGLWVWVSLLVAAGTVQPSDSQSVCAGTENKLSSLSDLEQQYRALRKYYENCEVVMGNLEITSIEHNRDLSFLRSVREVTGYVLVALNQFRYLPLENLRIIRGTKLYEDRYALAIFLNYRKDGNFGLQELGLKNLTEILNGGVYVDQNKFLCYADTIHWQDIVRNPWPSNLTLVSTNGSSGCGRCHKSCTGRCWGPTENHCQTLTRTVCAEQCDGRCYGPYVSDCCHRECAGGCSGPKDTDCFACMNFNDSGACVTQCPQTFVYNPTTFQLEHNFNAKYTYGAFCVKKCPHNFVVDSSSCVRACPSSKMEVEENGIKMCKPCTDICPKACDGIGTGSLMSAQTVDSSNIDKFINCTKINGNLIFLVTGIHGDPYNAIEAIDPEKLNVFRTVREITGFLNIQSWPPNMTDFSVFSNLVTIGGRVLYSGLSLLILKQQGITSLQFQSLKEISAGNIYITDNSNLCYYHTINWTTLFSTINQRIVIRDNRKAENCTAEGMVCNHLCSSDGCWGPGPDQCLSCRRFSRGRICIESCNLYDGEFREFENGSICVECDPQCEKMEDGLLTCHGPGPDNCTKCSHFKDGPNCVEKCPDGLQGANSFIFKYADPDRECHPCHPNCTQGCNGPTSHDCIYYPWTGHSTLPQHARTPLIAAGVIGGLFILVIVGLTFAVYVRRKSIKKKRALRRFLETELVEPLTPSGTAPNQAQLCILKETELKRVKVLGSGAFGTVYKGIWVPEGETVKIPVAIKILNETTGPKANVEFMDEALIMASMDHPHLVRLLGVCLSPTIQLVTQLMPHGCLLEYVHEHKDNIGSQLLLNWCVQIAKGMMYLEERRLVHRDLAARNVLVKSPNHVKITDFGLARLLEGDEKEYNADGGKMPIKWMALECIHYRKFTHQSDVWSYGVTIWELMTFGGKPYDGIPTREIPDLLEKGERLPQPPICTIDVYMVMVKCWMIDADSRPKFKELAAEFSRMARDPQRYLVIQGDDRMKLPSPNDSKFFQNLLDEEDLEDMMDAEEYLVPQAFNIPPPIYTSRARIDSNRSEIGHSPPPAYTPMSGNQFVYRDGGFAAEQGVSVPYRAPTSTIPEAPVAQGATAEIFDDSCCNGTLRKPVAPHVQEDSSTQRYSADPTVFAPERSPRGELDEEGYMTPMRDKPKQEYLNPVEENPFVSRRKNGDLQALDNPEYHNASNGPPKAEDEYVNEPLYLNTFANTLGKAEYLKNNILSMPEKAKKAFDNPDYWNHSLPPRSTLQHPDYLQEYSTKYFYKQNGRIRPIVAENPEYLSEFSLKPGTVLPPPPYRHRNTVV
UniProt O75460: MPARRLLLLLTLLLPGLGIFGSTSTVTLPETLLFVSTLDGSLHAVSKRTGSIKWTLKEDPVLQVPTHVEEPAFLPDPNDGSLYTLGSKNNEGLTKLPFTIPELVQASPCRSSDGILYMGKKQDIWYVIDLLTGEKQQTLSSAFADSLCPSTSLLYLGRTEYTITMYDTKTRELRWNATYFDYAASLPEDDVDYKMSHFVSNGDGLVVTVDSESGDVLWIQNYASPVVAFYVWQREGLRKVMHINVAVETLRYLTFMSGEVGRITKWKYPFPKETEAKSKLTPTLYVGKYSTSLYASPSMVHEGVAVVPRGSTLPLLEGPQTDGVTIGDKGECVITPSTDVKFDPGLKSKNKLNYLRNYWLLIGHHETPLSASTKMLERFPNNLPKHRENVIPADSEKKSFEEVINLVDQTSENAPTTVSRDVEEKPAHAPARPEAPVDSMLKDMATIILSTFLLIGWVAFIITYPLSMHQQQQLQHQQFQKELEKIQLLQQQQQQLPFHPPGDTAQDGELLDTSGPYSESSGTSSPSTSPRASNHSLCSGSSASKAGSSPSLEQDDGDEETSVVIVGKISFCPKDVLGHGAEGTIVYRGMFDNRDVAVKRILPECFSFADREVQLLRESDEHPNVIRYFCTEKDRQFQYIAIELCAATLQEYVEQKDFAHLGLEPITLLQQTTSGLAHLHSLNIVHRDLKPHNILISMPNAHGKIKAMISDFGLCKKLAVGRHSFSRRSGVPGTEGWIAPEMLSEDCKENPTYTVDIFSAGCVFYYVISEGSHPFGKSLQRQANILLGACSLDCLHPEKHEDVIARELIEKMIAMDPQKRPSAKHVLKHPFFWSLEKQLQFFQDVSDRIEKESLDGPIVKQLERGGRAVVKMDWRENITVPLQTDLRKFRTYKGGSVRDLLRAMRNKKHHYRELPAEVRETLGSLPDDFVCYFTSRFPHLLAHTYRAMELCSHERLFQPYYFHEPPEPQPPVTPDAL
UniProt P11362, whole entry, looked up: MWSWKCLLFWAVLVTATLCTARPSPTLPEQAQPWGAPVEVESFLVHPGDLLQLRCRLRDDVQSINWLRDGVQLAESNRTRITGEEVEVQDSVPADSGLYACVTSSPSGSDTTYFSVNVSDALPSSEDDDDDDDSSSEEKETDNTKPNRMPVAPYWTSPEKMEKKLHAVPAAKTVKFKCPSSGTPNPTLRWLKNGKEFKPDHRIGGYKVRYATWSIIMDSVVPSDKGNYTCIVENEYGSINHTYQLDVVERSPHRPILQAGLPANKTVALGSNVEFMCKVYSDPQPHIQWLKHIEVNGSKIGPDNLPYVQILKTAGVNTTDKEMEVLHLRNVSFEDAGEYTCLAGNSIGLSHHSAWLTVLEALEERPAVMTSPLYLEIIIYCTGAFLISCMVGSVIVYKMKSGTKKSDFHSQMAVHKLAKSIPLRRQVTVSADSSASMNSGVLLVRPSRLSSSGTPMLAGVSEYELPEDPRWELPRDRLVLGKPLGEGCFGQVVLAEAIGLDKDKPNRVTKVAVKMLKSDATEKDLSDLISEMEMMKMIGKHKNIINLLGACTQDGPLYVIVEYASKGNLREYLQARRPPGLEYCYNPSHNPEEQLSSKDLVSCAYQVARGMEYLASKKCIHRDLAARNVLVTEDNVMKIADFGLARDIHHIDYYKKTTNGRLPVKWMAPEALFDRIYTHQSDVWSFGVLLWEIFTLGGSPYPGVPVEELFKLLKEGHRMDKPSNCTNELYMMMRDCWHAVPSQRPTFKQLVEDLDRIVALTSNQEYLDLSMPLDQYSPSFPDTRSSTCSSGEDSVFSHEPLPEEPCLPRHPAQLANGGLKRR
UniProt P22607, whole entry, looked up: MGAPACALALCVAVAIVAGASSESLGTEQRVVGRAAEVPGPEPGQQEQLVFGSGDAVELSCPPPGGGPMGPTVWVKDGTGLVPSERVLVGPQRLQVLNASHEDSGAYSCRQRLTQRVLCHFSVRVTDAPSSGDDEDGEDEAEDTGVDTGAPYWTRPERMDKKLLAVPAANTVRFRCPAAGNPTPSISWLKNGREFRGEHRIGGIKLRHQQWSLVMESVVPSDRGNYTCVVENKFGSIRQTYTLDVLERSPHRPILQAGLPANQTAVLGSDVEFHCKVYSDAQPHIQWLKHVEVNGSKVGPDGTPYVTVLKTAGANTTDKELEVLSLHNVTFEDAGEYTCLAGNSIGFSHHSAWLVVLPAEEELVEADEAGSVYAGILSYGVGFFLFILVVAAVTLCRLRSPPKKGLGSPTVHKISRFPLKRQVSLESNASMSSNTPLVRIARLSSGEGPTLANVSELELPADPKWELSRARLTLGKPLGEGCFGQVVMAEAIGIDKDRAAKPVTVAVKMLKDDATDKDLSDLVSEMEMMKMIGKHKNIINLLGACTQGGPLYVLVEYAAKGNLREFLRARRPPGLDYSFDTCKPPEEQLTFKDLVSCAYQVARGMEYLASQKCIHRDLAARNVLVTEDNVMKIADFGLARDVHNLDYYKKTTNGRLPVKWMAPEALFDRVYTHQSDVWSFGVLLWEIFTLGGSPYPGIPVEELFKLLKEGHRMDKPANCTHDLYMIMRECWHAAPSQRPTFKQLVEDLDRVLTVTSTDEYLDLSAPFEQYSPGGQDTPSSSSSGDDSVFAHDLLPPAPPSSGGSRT

Tests used:
Experiment in all cases: number of time points (of 5) at which kinase-Nluc abundance scored as decreased, DMSO-normalised (count); higher = more persistent destabilization
Conditions in all cases: K562; 2-18 h
EGFR_L861Q = EGFR_L861Q (UniProt P00533)
EGFR_T790M = EGFR_T790M (UniProt P00533)
EPHA2 = EPHA2 (UniProt P29317)
ERBB3 = ERBB3 (UniProt P21860)
[1] = target: ERBB4_R711C (clone: ERBB4_mut) (UniProt Q15303)
ERN1 = ERN1 (UniProt O75460)
FGFR1 = FGFR1 (UniProt P11362)
FGFR2 = FGFR2 (UniProt P21802)
FGFR3 = FGFR3 (UniProt P22607)
FGR = FGR (UniProt P09769)

Measured: number of time points

O=C1NC(=O)/C(=C/c2ccc3c(c2)OC(F)(F)O3)S1 (10 µM)
0: all assays above

CC(=O)N1CCN(c2cc(-c3cc(C(F)(F)F)c4c(N)ncnn34)ccc2C#N)C(=O)C1(C)C (10 µM)
0: all assays above

CC1=C2C(=O)O[C@@H](c3ccoc3)[C@]2(C)CCC1 [Fraxinellone] (10 µM)
0: all assays above

CN(C)CCN(Cc1ccc(Cl)cc1)c1ccccn1 [Chloropyramine hydrochloride] (10 µM)
0: all assays above

Cc1csc(-c2nnc(Nc3ccc(Oc4ncccc4-c4ccnc(N)n4)cc3)c3ccccc23)c1 (2.5 µM)
1: [1]
2: ERBB3
0: all other assays above

CN1CCN(c2ccc(Nc3ncc4nc(Nc5ccccc5)n([C@@H]5CCN(S(=O)(=O)C6CC6)C5)c4n3)cc2)CC1 (2.5 µM)
2: FGFR2
0: all other assays above

Three entries out of the list, sorted by formula weight, descending:
CN1CCN(c2ccc(Nc3ncc4nc(Nc5ccccc5)n([C@@H]5CCN(S(=O)(=O)C6CC6)C5)c4n3)cc2)CC1 (2.5 µM)
2: FGFR2
0: all other assays above

CN(C)CCN(Cc1ccc(Cl)cc1)c1ccccn1 [Chloropyramine hydrochloride] (10 µM)
0: all assays above

CC1=C2C(=O)O[C@@H](c3ccoc3)[C@]2(C)CCC1 [Fraxinellone] (10 µM)
0: all assays above

Going on with the list.

CC(C)CN(CC(=O)N1CCN(CC(OCc2ccc3ccccc3c2)c2ccc(Cl)cc2Cl)CC1)CC(C)C (stereo not given) [LYN-1604 (dihydrochloride)] (2.5 µM)
0: all assays above

Cn1cc(-c2ccc(CNc3cc(-c4cnc5cc(OCCCN6CCCC6)ccn45)ncn3)cc2)cn1 (10 µM)
0: all assays above

CN1CCN(c2ccc(C(=O)Nc3cc(-c4cccc(NS(=O)(=O)c5ccccc5)c4)[nH]n3)cc2)CC1 [BPR1J-097 Hydrochloride] (2.5 µM)
0: all assays above

CC(C)(NS(=O)(=O)c1ccc2c(Cl)cnc(N=C(N)N)c2c1)C(=O)O (10 µM)
0: all assays above

O=C1NC(=O)C(=Cc2ccc(-c3ccc(F)cc3)o2)S1 (stereo in doubt) (10 µM)
0: all assays above

C=CC(=O)Nc1ccc(CN(C(=O)Nc2c(Cl)c(OC)cc(OC)c2Cl)c2cc(Nc3ccc(N4CCN(C)CC4)cc3)ncn2)cc1 (10 µM)
0: all assays above

O=C(NC(NC(=S)Nc1ccc(F)c([N+](=O)[O-])c1)C(Cl)(Cl)Cl)C(c1ccccc1)c1ccccc1 (stereo not given) (10 µM)
0: all assays above

Cc1cc(Nc2cc(Cl)nc(Oc3ccc([N+](=O)[O-])cc3)n2)n[nH]1 [Autophinib] (2.5 µM)
0: all assays above

CCn1c(=O)c(-c2ccc(-c3cncc(C)n3)cc2Cl)cc2cnc(NCCC3CCN(C)CC3)nc21 (10 µM)
0: all assays above

CC(=O)c1c(C)c2cnc(Nc3ccc(N4CCN(CCCCNC(=O)COc5cccc6c5C(=O)N(C5CCC(=O)NC5=O)C6=O)CC4)cn3)nc2n(C2CCCC2)c1=O (stereo not given) (10 µM)
0: all assays above

COc1cc(C(N)=O)nc(-c2cccc(C#C[C@]3(O)CCN(C)C3=O)c2)c1 (10 µM)
0: all assays above

Cc1cc(Nc2nc(N[C@@H](C)c3ccc(F)cc3)c(C#N)cc2F)n[nH]1 (10 µM)
5: ERBB3
4: [1]
0: all other assays above

Cc1ccc(NC(=S)NNc2c([N+](=O)[O-])cc(C(F)(F)F)cc2[N+](=O)[O-])cc1Cl (10 µM)
0: all assays above

COc1ccc([C@@H]2CC(=O)c3c(O)cc(O)cc3O2)cc1O [Hesperetin] (10 µM)
0: all assays above

COc1c(NC(=O)C(=O)c2ccc(OCCN3CCOCC3)c3ccccc23)cc(C(C)(C)C)cc1NS(C)(=O)=O (2.5 µM)
0: all assays above

CC(c1ccc(-c2cnc3c(-c4ccc(S(N)(=O)=O)c5ccccc45)cnn3c2)cc1)N1CCCC1 (stereo not given) (2.5 µM)
0: all assays above

Fc1ccc(-c2nc(-c3c(F)cccc3F)[nH]c2-c2ccncc2)cc1 (10 µM)
0: all assays above

COc1ccc(Cl)cc1NC(=O)Nc1cc(C)nc2ccccc12 (2.5 µM)
0: all assays above

O=C(O)CCc1ccc(O)c(O)c1 [Dihydrocaffeic acid] (10 µM)
0: all assays above

CCc1cc(O)c(F)cc1-c1ccc2c(-c3nc4c([nH]3)CN(C3CCN(C)CC3)CC4)n[nH]c2c1 [JAK-IN-5 (hydrochloride)] (2 µM)
2: EGFR_L861Q | FGFR1
3: ERBB3 | [1] | FGFR2
0: all other assays above

c1cn2cc(-c3ccc4cn[nH]c4c3)nc(Nc3ccc(N4CCOCC4)cc3)c2n1 [Entospletinib] (10 µM)
0: all assays above

CC[C@@]1(c2ccccc2)C2=C(CC(C)(C)CC2=O)Nc2[nH]ncc21 (10 µM)
0: all assays above

Cc1ccc2nc(NC(=O)CSc3nc4c(c(=O)n3-c3ccccc3)SCC4)sc2c1 (2 µM)
0: all assays above

COc1ccc(-c2ccc3c(N4CCOC[C@@H]4C)nc(N4CCOC[C@@H]4C)nc3n2)cc1CO (2.5 µM)
1: EPHA2
2: ERN1
0: EGFR_T790M | FGR
3: EGFR_L861Q | ERBB3
4: all other assays above

CC(C)=CCC[C@](C)(O[C@@H]1O[C@H](CO)[C@@H](O)[C@H](O)[C@H]1O)[C@H]1CC[C@]2(C)[C@@H]1[C@H](O)C[C@@H]1[C@@]3(C)CC[C@H](O)C(C)(C)[C@@H]3[C@@H](O[C@@H]3O[C@H](CO)[C@@H](O)[C@H](O)[C@H]3O[C@@H]3O[C@@H](C)[C@H](O)[C@@H](O)[C@H]3O)C[C@]12C [Ginsenoside Re] (10 µM)
0: all assays above

Cc1ccc(-c2c(C(=O)CF)n(CCCO)c3ncnc(N)c23)cc1 (10 µM)
0: all assays above

COc1ccc(CC(=O)Nc2nc3c(s2)CCc2ccccc2-3)cc1OC (10 µM)
0: all assays above

CNC(=O)Nc1ccc(-c2cc(-c3ccnc(Nc4ccc(C)c(S(=O)(=O)N(C)C)c4)n3)ccn2)cc1 [hSMG-1 inhibitor 11e] (2.5 µM)
2: EGFR_L861Q
4: [1]
0: all other assays above

O=C(/C=C/c1ccc(O)c(O)c1)c1ccc(O[C@@H]2O[C@H](CO)[C@@H](O)[C@H](O)[C@H]2O)c(O)c1O [Marein] (10 µM)
0: all assays above

Cc1cc(O)c(C(C)C)cc1N=O [Poloxime] (10 µM)
0: all assays above
